PubChem BioAssay AID743121 – NCATS – 2013
The whole screen tested about 26,000 reagents; below is a part drawn at random. 167 of them (0.63%) were called active. 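Calls are per gene from RSA p-values that are not deposited; an individual active-marked siRNA can sensitise only weakly.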 Reagents against one gene are numbered here. Not all columns of the deposit are shown.

Test: 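Knock-downs that sensitise breast cancer cells to camptothecin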 (primary screen)
Cells: MDA-MB-231 cells, a human breast cancer line
Reagent: single siRNA against human genes, 20 nM siRNA (0.8 pmol per well)
Time to read-out: 120 h (drug added 48 h after transfection, read 72 h later)
Treatment: camptothecin 20 nM (about EC30) for 72 h; vehicle 0.1% DMSO in parallel plates
Measured: 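CellTiter-Glo ATP signal, scaled to control siRNA as percent viability; sensitisation given as log2 of untreated divided by camptothecin-treated viability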
Reading the numbers: log2 vehicle/camptothecin viability: higher = stronger sensitisation to camptothecin; viability with camptothecin: higher = more viable cells
Units: viability with camptothecin in % of control
Rule for the call: 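Each gene scored by redundant siRNA activity (RSA) over its individual siRNA ratios; a gene is called active at p < 0.001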

CDC42BPA #1 | log2 vehicle/camptothecin viability: -0.0964; viability with camptothecin: 100; activity call: inactive
CDC42BPA #2 | log2 vehicle/camptothecin viability: -0.111; viability with camptothecin: 79.8; activity call: inactive
CDC42BPA #3 | log2 vehicle/camptothecin viability: -0.225; viability with camptothecin: 74.6; activity call: inactive
CDC42BPA #4 | log2 vehicle/camptothecin viability: -0.196; viability with camptothecin: 117; activity call: inactive
CA6 #1 | log2 vehicle/camptothecin viability: 0.11; viability with camptothecin: 99.7; activity call: inactive
CA6 #2 | log2 vehicle/camptothecin viability: 0.232; viability with camptothecin: 64.2; activity call: inactive
CA6 #3 | log2 vehicle/camptothecin viability: -0.441; viability with camptothecin: 80.1; activity call: inactive
CA6 #4 | log2 vehicle/camptothecin viability: -0.142; viability with camptothecin: 96.9; activity call: inactive
PHF10 #1 | log2 vehicle/camptothecin viability: -0.0952; viability with camptothecin: 87; activity call: inactive
PHF10 #2 | log2 vehicle/camptothecin viability: -0.0353; viability with camptothecin: 89.4; activity call: inactive
PHF10 #3 | log2 vehicle/camptothecin viability: 0.0322; viability with camptothecin: 38.2; activity call: inactive
PHF10 #4 | log2 vehicle/camptothecin viability: -0.0418; viability with camptothecin: 66.1; activity call: inactive

Entries listed so far whose gene name begins with P or p (4):
PHF10 #1 | log2 vehicle/camptothecin viability: -0.0952; viability with camptothecin: 87; activity call: inactive
PHF10 #2 | log2 vehicle/camptothecin viability: -0.0353; viability with camptothecin: 89.4; activity call: inactive
PHF10 #3 | log2 vehicle/camptothecin viability: 0.0322; viability with camptothecin: 38.2; activity call: inactive
PHF10 #4 | log2 vehicle/camptothecin viability: -0.0418; viability with camptothecin: 66.1; activity call: inactive

The results go on:
PLK3 #1 | log2 vehicle/camptothecin viability: -0.0357; viability with camptothecin: 42.7; activity call: inactive
PLK3 #2 | log2 vehicle/camptothecin viability: 0.013; viability with camptothecin: 96.2; activity call: inactive
PLK3 #3 | log2 vehicle/camptothecin viability: -0.298; viability with camptothecin: 52.7; activity call: inactive
PLK3 #4 | log2 vehicle/camptothecin viability: -0.473; viability with camptothecin: 78.6; activity call: inactive
ENG #1 | log2 vehicle/camptothecin viability: -1.2; viability with camptothecin: 71.3; activity call: inactive
ENG #2 | log2 vehicle/camptothecin viability: -0.28; viability with camptothecin: 65; activity call: inactive
ENG #3 | log2 vehicle/camptothecin viability: -0.335; viability with camptothecin: 116; activity call: inactive
ENG #4 | log2 vehicle/camptothecin viability: 0.165; viability with camptothecin: 74.2; activity call: inactive
DDX20 #1 | log2 vehicle/camptothecin viability: -0.0967; viability with camptothecin: 93.1; activity call: inactive
DDX20 #2 | log2 vehicle/camptothecin viability: -0.58; viability with camptothecin: 72.2; activity call: inactive
DDX20 #3 | log2 vehicle/camptothecin viability: -0.222; viability with camptothecin: 34.3; activity call: inactive
ARHGEF6 #1 | log2 vehicle/camptothecin viability: -0.0695; viability with camptothecin: 100; activity call: inactive
ARHGEF6 #2 | log2 vehicle/camptothecin viability: -0.505; viability with camptothecin: 104; activity call: inactive
ARHGEF6 #3 | log2 vehicle/camptothecin viability: -0.33; viability with camptothecin: 108; activity call: inactive
ARHGEF6 #4 | log2 vehicle/camptothecin viability: 0.115; viability with camptothecin: 83.8; activity call: inactive
JAK1 #1 | log2 vehicle/camptothecin viability: -0.106; viability with camptothecin: 71.1; activity call: inactive
JAK1 #2 | log2 vehicle/camptothecin viability: -0.396; viability with camptothecin: 65.4; activity call: inactive
JAK1 #3 | log2 vehicle/camptothecin viability: -0.193; viability with camptothecin: 62.1; activity call: inactive
JAK1 #4 | log2 vehicle/camptothecin viability: -0.259; viability with camptothecin: 79.9; activity call: inactive
PTH1R #1 | log2 vehicle/camptothecin viability: -0.207; viability with camptothecin: 104; activity call: inactive
PTH1R #2 | log2 vehicle/camptothecin viability: -0.183; viability with camptothecin: 84.8; activity call: inactive
PTH1R #3 | log2 vehicle/camptothecin viability: -0.379; viability with camptothecin: 75.3; activity call: inactive
PTH1R #4 | log2 vehicle/camptothecin viability: -0.129; viability with camptothecin: 37.1; activity call: inactive
